From patent EP2545075B1 (NovelMed Therapeutics, Inc., dated 2020)
No constants are given. Whether binding was seen depends on the method and setting. Some binding calls cover weakened binding; strength is not graded here.

By UniProt entry, the sequences of proteins in these tests, tags left out. Residues count along the entry.
UniProt P27918, residues 28-469: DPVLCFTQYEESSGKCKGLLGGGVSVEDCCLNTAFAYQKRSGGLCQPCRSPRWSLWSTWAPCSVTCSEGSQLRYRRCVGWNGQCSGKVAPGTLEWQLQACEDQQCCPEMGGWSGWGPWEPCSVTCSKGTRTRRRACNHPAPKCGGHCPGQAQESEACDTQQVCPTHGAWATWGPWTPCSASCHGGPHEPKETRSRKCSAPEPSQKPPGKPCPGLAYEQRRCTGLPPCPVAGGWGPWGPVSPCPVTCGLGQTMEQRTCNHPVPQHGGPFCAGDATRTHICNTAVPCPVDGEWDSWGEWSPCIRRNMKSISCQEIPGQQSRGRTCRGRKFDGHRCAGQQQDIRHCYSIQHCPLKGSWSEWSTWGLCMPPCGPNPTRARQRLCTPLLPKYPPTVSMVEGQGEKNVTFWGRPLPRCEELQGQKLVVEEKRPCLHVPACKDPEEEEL

Assays:
human properdin [1] = biological target: T1, human properdin (human, UniProt P27918 28-469); experiment: Properdin binding assay (Fig. 18 legend)
human properdin [2] = biological target: T1, human properdin; experiment: ELISA on properdin-coated plates (Fig. 2)
human properdin [3] = biological target: T1, human properdin; experiment: ELISA on properdin-coated plates
human properdin [4] = biological target: T1, human properdin; experiment: ELISA on properdin-coated plates (Fig. 2 legend)
human properdin [5] = biological target: T1, human properdin; experiment: Properdin binding assay (Fig. 18)
human properdin [6] = biological target: T1, human properdin; experiment: Binding to the antigen properdin (ELISA)

Measured: binding

B1: NM9401-IgG (antibody, V domains shown)
VH: QVQLQQSAPELARPGASVKMSCTASGYIFTNYPIHWVKQRPGQGLEWIGFIDPGGGYDEPDERFRDRATLTADKSSSTAYMQLSSLTSEDSAIYYCARRGGGYYLDYWGQGTTLTVSS
VL: DIQMTQTTSSLSASLGDRVTISCRASQDISFFLNWYQQKPDGTVKLLIYYTSRYHSGVPSRFSGSGSGTDFSLTINNLEQEDFATYFCQHGNTLPWTFGGGTKLEIK
modifications: Biotinylated in Example 5 (site not stated).
binds: human properdin [1] | human properdin [2] | human properdin [3] | human properdin [4] | human properdin [5]

B2: NM9401-Fab (Fab, V domains shown)
VH: QVQLQQSAPELARPGASVKMSCTASGYIFTNYPIHWVKQRPGQGLEWIGFIDPGGGYDEPDERFRDRATLTADKSSSTAYMQLSSLTSEDSAIYYCARRGGGYYLDYWGQGTTLTVSS
VL: DIQMTQTTSSLSASLGDRVTISCRASQDISFFLNWYQQKPDGTVKLLIYYTSRYHSGVPSRFSGSGSGTDFSLTINNLEQEDFATYFCQHGNTLPWTFGGGTKLEIK
notes: Fab fragment of the murine antibody NM9401; also called anti-properdin Fab
binds: human properdin [2] | human properdin [3] | human properdin [4]

B3: BAP010_1 (antibody, IgG1, V domains shown)
VH: QVQLQQSAPELARPGASVKMSCTASGYIFTNYPIHWVKQRPGQGLEWIGFIDPGGGYDEPDERFRDRATLTADKSSSTAYMQLSSLTSEDSAIYYCARRGGGYYLDYWGQGTTLTVSS
VL: DIQMTQTTSSLSASLGDRVTISCRASQDISFFLNWYQQKPDGTVKLLIYYTSRYHSGVPSRFSGSGSGTDFSLTINNLEQEDFATYFCQHGNTLPWTFGGGTKLEIK
notes: Chimeric full-length IgG1/kappa carrying the variable domains of NM9401, expressed in CHO-S cells; also called chimeric anti-properdin monoclonal antibody; recombinant antibody BAP010_1
binds: human properdin [1] | human properdin [6] | human properdin [5]
